# Test results published in the supplement of paper PMC8728848.
# The list shows a part of the results.
# Key:
# Assay in all cases: glycan array binding signal (z-score within array); higher = stronger binding
# Conditions in all cases: glycan notation: IUPAC condensed, linker removed
# [1] = biological target: Fuc(a1-2)[Gal(a1-4)]Gal(b1-4)GlcNAc
# In short: (§1)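 Columns mapping to the same glycan were averaged after glycan names were converted to IUPAC-condensed notation. The data come from 3228 arrays in the Consortium for Functional Glycomics database, limited to those with an available protein sequence. Binding is reported as a within-array Z-score averaged across arrays of one protein sequence and across linkers.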
# [2] = biological target: Fuc(a1-2)[GalNAc(a1-3)]Gal
# In short: as §1
# [3] = biological target: Fuc(a1-2)[GalNAc(a1-3)]Gal(b1-3)GalNAc(a1-3)[Fuc(a1-2)]Gal(b1-4)GlcNAc
# In short: as §1
# [4] = biological target: Fuc(a1-2)[GalNAc(a1-3)]Gal(b1-3)GalNAc(b1-3)Gal(a1-4)Gal(b1-4)Glc
# In short: as §1
# [5] = biological target: Fuc(a1-2)[GalNAc(a1-3)]Gal(b1-3)GlcNAc
# In short: as §1
# [6] = biological target: Fuc(a1-2)[GalNAc(a1-3)]Gal(b1-3)GlcNAc(b1-2)Man(a1-3)[Fuc(a1-2)[GalNAc(a1-3)]Gal(b1-3)GlcNAc(b1-2)Man(a1-6)]Man(b1-4)GlcNAc(b1-4)GlcNAc
# In short: as §1
# [7] = biological target: Fuc(a1-2)[GalNAc(a1-3)]Gal(b1-3)GlcNAc(b1-2)Man(a1-3)[Fuc(a1-2)[GalNAc(a1-3)]Gal(b1-3)GlcNAc(b1-2)Man(a1-6)]Man(b1-4)GlcNAc(b1-4)[Fuc(a1-6)]GlcNAc
# In short: as §1
# [8] = biological target: Fuc(a1-2)[GalNAc(a1-3)]Gal(b1-3)GlcNAc(b1-3)GalNAc
# In short: as §1
# [9] = biological target: Fuc(a1-2)[GalNAc(a1-3)]Gal(b1-3)GlcNAc(b1-6)GalNAc
# In short: as §1
# [10] = biological target: Fuc(a1-2)[GalNAc(a1-3)]Gal(b1-4)Glc
# In short: as §1
# [11] = biological target: Fuc(a1-2)[GalNAc(a1-3)]Gal(b1-4)GlcNAc
# In short: as §1
# [12] = biological target: Fuc(a1-2)[GalNAc(a1-3)]Gal(b1-4)GlcNAc(b1-2)Man
# In short: as §1
# [13] = biological target: Fuc(a1-2)[GalNAc(a1-3)]Gal(b1-4)GlcNAc(b1-2)Man(a1-3)[Fuc(a1-2)[GalNAc(a1-3)]Gal(b1-4)GlcNAc(b1-2)Man(a1-6)]Man(b1-4)GlcNAc(b1-4)GlcNAc
# In short: as §1
# [14] = biological target: Fuc(a1-2)[GalNAc(a1-3)]Gal(b1-4)GlcNAc(b1-2)Man(a1-3)[Fuc(a1-2)[GalNAc(a1-3)]Gal(b1-4)GlcNAc(b1-2)Man(a1-6)]Man(b1-4)GlcNAc(b1-4)[Fuc(a1-6)]GlcNAc
# In short: as §1
# [15] = biological target: Fuc(a1-2)[GalNAc(a1-3)]Gal(b1-4)GlcNAc(b1-3)Gal(b1-4)GlcNAc
# In short: as §1
# [16] = biological target: Fuc(a1-2)[GalNAc(a1-3)]Gal(b1-4)GlcNAc(b1-3)Gal(b1-4)GlcNAc(b1-3)Gal(b1-4)GlcNAc
# In short: as §1
# [17] = biological target: Fuc(a1-2)[GalNAc(a1-3)]Gal(b1-4)GlcNAc(b1-3)GalNAc
# In short: as §1
# [18] = biological target: Fuc(a1-2)[GalNAc(a1-3)]Gal(b1-4)GlcNAc(b1-3)[Fuc(a1-2)[GalNAc(a1-3)]Gal(b1-4)GlcNAc(b1-6)]GalNAc
# In short: as §1
# [19] = biological target: Fuc(a1-2)[GalNAc(a1-3)]Gal(b1-4)GlcNAc(b1-6)GalNAc
# In short: as §1
# [20] = biological target: Fuc(a1-2)[GalNAc(a1-3)]Gal(b1-4)[Fuc(a1-3)]GlcNAc
# In short: as §1
# [21] = biological target: Fuc(a1-2)[GalNAc(a1-3)]Gal(b1-4)[Fuc(a1-3)]GlcNAc(b1-3)GalNAc
# In short: as §1
# [22] = biological target: Fuc(a1-2)[GalNAc(a1-4)]Gal(b1-4)GlcNAc
# In short: as §1
# [23] = biological target: Fuc(a1-2)[GalNAc(b1-3)]Gal
# In short: as §1
# [24] = biological target: Fuc(a1-3)GlcNAc
# In short: as §1
# [25] = biological target: Fuc(a1-3)[Gal(b1-4)]Glc6S
# In short: as §1
# [26] = biological target: Fuc(a1-3)[Gal(b1-4)]GlcNAc
# In short: as §1
# [27] = biological target: Fuc(a1-3)[Gal(b1-4)]GlcNAc(b1-2)Man
# In short: as §1
# [28] = biological target: Fuc(a1-3)[Gal(b1-4)]GlcNAc(b1-2)Man(a1-3)[Fuc(a1-3)[Gal(b1-4)]GlcNAc(b1-2)Man(a1-6)]Man(b1-4)GlcNAc(b1-4)GlcNAc
# In short: as §1
# [29] = biological target: Fuc(a1-3)[Gal(b1-4)]GlcNAc(b1-2)Man(a1-3)[Fuc(a1-3)[Gal(b1-4)]GlcNAc(b1-2)Man(a1-6)]Man(b1-4)GlcNAc(b1-4)[Fuc(a1-6)]GlcNAc
# In short: as §1
# [30] = biological target: Fuc(a1-3)[Gal(b1-4)]GlcNAc(b1-3)Gal(b1-3)[Fuc(a1-4)]GlcNAc
# In short: as §1
# [31] = biological target: Fuc(a1-3)[Gal(b1-4)]GlcNAc(b1-3)Gal(b1-4)[Fuc(a1-3)]GlcNAc
# In short: as §1
# [32] = biological target: Fuc(a1-3)[Gal(b1-4)]GlcNAc(b1-3)Gal(b1-4)[Fuc(a1-3)]GlcNAc(b1-3)Gal(b1-4)[Fuc(a1-3)]GlcNAc
# In short: as §1
# [33] = biological target: Fuc(a1-3)[Gal(b1-4)]GlcNAc(b1-3)GalNAc
# In short: as §1
# [34] = biological target: Fuc(a1-3)[Gal(b1-4)]GlcNAc(b1-6)GalNAc
# In short: as §1
# [35] = biological target: Fuc(a1-3)[Gal(b1-4)]GlcNAc(b1-6)[Gal(b1-3)GlcNAc(b1-3)]Gal(b1-4)Glc
# In short: as §1
# [36] = biological target: Fuc(a1-3)[Gal(b1-4)]GlcNAc6S
# In short: as §1
# [37] = biological target: Fuc(a1-3)[Gal3S(b1-4)]Glc
# In short: as §1
# [38] = biological target: Fuc(a1-3)[Gal3S(b1-4)]GlcNAc
# In short: as §1
binder,measurement,setting,value
"SspB C123 (Streptococcus gordonii), Q54186 (protein) MAHFHYSSLLAQPQINKEIKNEDGVDIDRTLVAKQSIGKFELKTEALTAGRPKTTSFVLVDPLPTGYKFDLDATKAASTGFDTTYDEASHTVTFKATDETLATYNADLTKPVETLHPTVVGRVLNDGATYTNNFTLTVNDAYGIKSNVVRVTTPGKPNDPDNPNNNYIKPTKVNKNKEGLNIDGKEVLAGSTNYYELTWDLDQYKGDKSSKEAIQNGFYYVDDYPEEALDVRPDLVKVADEKGNQVSGVSVQQYDSLEAAPKKVQDLLKKANITVKGAFQLFSADNPEEFYKQYVSTGTSLVITDPMTVKSEFGKTGGKYENKAYQIDFGNGYATEVVVNNVPKITPKKDVTVSLDPTSENLDGQTVQLYQTFNYRLIGGFIPQNHSEELEDYSFVDDYDQAGDQYTGNYKTFSSLNLTMKDGSVIKAGTDLTSQTTAETDATNGIVTVRFKEDFLQKISLDSPFQAETYLQMRRIAIGTFENTYVNTVNKVAYASAAALEHHHHHH",glycan array binding signal (z-score),[1],2.16
same,glycan array binding signal (z-score),[2],-0.539
same,glycan array binding signal (z-score),[3],-1.55
same,glycan array binding signal (z-score),[4],0.965
same,glycan array binding signal (z-score),[5],0.229
same,glycan array binding signal (z-score),[6],-0.312
same,glycan array binding signal (z-score),[7],-0.231
same,glycan array binding signal (z-score),[8],-0.962
same,glycan array binding signal (z-score),[9],-0.099
same,glycan array binding signal (z-score),[10],1.36
same,glycan array binding signal (z-score),[11],-0.406
same,glycan array binding signal (z-score),[12],2.05
same,glycan array binding signal (z-score),[13],0.49
same,glycan array binding signal (z-score),[14],-0.199
same,glycan array binding signal (z-score),[15],-2.11
same,glycan array binding signal (z-score),[16],1.18
same,glycan array binding signal (z-score),[17],2.16
same,glycan array binding signal (z-score),[18],0.72
same,glycan array binding signal (z-score),[19],-1.47
same,glycan array binding signal (z-score),[20],1.45
same,glycan array binding signal (z-score),[21],0.243
same,glycan array binding signal (z-score),[22],-0.619
same,glycan array binding signal (z-score),[23],1.69
same,glycan array binding signal (z-score),[24],-1.31
same,glycan array binding signal (z-score),[25],0.242
same,glycan array binding signal (z-score),[26],-0.536
same,glycan array binding signal (z-score),[27],0.15
same,glycan array binding signal (z-score),[28],0.605
same,glycan array binding signal (z-score),[29],0.523
same,glycan array binding signal (z-score),[30],-0.194
same,glycan array binding signal (z-score),[31],-1.49
same,glycan array binding signal (z-score),[32],0.089
same,glycan array binding signal (z-score),[33],0.166
same,glycan array binding signal (z-score),[34],1.07
same,glycan array binding signal (z-score),[35],-0.974
same,glycan array binding signal (z-score),[36],1.33
same,glycan array binding signal (z-score),[37],1.18
same,glycan array binding signal (z-score),[38],0.073

# Looked up one by one from above:
binder,measurement,setting,value
"SspB C123 (Streptococcus gordonii), Q54186 (protein) MAHFHYSSLLAQPQINKEIKNEDGVDIDRTLVAKQSIGKFELKTEALTAGRPKTTSFVLVDPLPTGYKFDLDATKAASTGFDTTYDEASHTVTFKATDETLATYNADLTKPVETLHPTVVGRVLNDGATYTNNFTLTVNDAYGIKSNVVRVTTPGKPNDPDNPNNNYIKPTKVNKNKEGLNIDGKEVLAGSTNYYELTWDLDQYKGDKSSKEAIQNGFYYVDDYPEEALDVRPDLVKVADEKGNQVSGVSVQQYDSLEAAPKKVQDLLKKANITVKGAFQLFSADNPEEFYKQYVSTGTSLVITDPMTVKSEFGKTGGKYENKAYQIDFGNGYATEVVVNNVPKITPKKDVTVSLDPTSENLDGQTVQLYQTFNYRLIGGFIPQNHSEELEDYSFVDDYDQAGDQYTGNYKTFSSLNLTMKDGSVIKAGTDLTSQTTAETDATNGIVTVRFKEDFLQKISLDSPFQAETYLQMRRIAIGTFENTYVNTVNKVAYASAAALEHHHHHH",glycan array binding signal (z-score),[30],-0.194
same,glycan array binding signal (z-score),[37],1.18
